Binding data for 8 molecules are collected here from publication PMC4396377.

The chains behind the UniProt entries cited, without tags or fusion partners. Where a name states a change or a piece, a line headed by the entry shows the natural chain unless it says otherwise.
UniProt P49841: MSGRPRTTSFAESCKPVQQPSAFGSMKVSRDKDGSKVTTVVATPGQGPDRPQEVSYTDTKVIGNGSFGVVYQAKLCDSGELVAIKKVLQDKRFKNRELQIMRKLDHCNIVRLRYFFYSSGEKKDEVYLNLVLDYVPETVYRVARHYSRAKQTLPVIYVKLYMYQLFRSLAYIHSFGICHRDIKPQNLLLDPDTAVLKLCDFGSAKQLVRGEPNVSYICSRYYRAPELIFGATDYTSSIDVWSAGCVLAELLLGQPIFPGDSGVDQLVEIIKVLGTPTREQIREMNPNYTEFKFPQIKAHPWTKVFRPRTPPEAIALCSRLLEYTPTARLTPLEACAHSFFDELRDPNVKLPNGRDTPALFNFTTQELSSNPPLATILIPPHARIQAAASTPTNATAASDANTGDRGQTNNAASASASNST
UniProt Q8IUC6: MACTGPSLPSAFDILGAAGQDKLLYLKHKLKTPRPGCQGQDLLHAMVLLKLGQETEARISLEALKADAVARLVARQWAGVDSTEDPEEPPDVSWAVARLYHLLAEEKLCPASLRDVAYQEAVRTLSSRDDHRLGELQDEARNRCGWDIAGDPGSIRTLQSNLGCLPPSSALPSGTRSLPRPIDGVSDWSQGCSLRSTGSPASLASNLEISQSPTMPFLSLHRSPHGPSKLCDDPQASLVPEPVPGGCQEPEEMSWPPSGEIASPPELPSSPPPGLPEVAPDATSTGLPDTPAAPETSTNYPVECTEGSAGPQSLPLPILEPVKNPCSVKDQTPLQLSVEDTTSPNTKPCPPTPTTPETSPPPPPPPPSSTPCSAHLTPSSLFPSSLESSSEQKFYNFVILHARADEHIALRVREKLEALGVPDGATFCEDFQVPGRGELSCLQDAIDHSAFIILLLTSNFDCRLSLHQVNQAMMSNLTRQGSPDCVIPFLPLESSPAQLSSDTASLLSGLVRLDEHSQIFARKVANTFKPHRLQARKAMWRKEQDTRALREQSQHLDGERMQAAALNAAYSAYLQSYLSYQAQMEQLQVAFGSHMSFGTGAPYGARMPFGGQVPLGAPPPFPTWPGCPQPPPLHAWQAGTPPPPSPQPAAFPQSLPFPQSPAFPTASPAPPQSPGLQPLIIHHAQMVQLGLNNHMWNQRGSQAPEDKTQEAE
UniProt Q9WV60: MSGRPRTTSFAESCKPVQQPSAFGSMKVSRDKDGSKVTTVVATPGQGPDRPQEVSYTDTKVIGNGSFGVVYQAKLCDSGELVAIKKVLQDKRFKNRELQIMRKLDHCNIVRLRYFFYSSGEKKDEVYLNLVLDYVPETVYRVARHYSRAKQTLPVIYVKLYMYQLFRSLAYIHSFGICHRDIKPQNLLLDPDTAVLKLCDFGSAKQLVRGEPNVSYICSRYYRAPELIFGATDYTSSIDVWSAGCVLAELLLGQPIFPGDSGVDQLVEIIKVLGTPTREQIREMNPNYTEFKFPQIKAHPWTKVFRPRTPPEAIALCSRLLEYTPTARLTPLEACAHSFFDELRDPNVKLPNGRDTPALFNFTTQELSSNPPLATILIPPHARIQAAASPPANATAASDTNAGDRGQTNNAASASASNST

Results are given in words; binding and its absence hold for the method and conditions named. In cells and extracts the contact can be indirect. Some entries that bind do so weakly or less than the wild type. For part of these data: Where a sequence is shown, tags or fusion partners need not be part of it.

In test [1] the target is HA-GSK3β (WT) (UniProt P49841). Briefly: co-IP; HEK293T cells co-transfected with TRIF, TRAF6, TAK1 and GSK3β (WT or K183R) together; Fig. 5f (anti-Flag), Fig. 7d (anti-HA), Fig. 7e (anti-Flag), western blotting. (In general: Immunoblotting shows a protein as a band on a membrane.)
Test [2] has as its target HA-GSK3β (WT) (UniProt P49841). Description: co-IP; HEK293T cells transfected with the indicated combinations of expression plasmids (Fig. 5b,d,e: anti-Flag; Fig. 7a–c: anti-HA), western blotting; TAB1 or TAB2 with GSK3β tested with or without TAK1.
The target in test [3] is HA-GSK3β K183R mutant (UniProt P49841). Described as above.
Test [4] addresses T1, Myc-TAK1 (UniProt O43318).
T1 sequence: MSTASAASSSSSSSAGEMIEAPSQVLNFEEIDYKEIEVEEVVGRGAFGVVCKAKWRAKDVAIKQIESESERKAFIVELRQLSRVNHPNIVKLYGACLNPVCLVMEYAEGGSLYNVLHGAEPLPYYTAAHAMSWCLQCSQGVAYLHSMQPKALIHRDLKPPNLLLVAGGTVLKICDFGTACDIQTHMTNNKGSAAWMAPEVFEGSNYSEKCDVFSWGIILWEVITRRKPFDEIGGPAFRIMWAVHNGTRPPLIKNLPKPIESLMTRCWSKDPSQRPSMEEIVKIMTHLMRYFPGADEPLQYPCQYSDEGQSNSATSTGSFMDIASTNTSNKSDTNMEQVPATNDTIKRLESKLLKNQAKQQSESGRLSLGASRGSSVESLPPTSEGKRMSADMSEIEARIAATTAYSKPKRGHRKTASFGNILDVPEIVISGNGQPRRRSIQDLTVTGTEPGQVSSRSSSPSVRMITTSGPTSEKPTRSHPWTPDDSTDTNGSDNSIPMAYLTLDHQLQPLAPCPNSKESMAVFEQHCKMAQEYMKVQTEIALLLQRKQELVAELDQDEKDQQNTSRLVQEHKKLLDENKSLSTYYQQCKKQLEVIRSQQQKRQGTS
Description: co-IP; cotransfection studies in mammalian cells; GSK3β and TAK1 each as the protein whose associates were examined; Supplementary Fig. 11a,b (not shown).

The target in test [5] is TRIF (transfected) (UniProt Q8IUC6). Description: co-IP; HEK293T cells co-transfected with TRIF, TRAF6, TAK1 and GSK3β (WT or K183R) together; Fig. 5f (anti-Flag), Fig. 7d (anti-HA), Fig. 7e (anti-Flag), western blotting.
The target in test [6] is T2, Flag-TRAF6 (UniProt P70196).
T2 sequence: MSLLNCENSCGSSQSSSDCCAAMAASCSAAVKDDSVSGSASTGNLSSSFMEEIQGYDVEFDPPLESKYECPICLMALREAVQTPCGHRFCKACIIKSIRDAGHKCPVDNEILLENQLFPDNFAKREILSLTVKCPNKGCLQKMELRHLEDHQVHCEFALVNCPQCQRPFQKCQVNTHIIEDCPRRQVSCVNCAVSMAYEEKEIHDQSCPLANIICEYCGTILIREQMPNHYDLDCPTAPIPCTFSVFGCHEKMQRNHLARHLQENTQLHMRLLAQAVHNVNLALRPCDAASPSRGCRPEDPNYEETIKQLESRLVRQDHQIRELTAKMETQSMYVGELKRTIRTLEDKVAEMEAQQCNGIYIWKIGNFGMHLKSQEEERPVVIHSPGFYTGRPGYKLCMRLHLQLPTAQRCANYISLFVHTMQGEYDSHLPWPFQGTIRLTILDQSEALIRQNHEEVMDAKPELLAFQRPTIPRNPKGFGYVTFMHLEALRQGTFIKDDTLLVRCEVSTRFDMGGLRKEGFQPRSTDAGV
Briefly: co-IP; HEK293T cells transfected with the indicated combinations of expression plasmids (Fig. 5b,d,e: anti-Flag; Fig. 7a–c: anti-HA), western blotting; TAB1 or TAB2 with GSK3β tested with or without TAK1.

For test [7], the target named is HA-GSK3β (WT) (UniProt P49841). Description: co-IP; cotransfection studies in mammalian cells; GSK3β and TAK1 each as the protein whose associates were examined; Supplementary Fig. 11a,b (not shown).
Test [8] addresses Glycogen synthase kinase 3β (GSK3β), endogenous (mouse (endogenous in MEFs and BMDMs)) (UniProt Q9WV60). Briefly: co-IP; BMDMs stimulated with 10 μg/ml poly I:C for 10 min; immunoprecipitation with an anti-GSK3β antibody, western blotting.

Turning to “TRIF (transfected) (from UniProt Q8IUC6 1-712)”, the binding entry in test [1], in test [2] and in test [3] was “binds” each time.

For the molecule “HA-GSK3β (WT) (from UniProt P49841 1-420) (enzyme)”, the binding entry in test [4], in test [5] and in test [6] was “binds” throughout.

B1: Myc-TAK1 (enzyme, UniProt O43318 1-606)
chain: T1 sequence
Take B1: the binding entry in test [7], in test [1], in test [5], in test [6], in test [2] and in test [3] was “binds” each time.

B2: TAB2 (transfected) (protein, UniProt Q9NYJ8 1-693)
chain: MAQGSHQIDFQVLHDLRQKFPEVPEVVVSRCMLQNNNNLDACCAVLSQESTRYLYGEGDLNFSDDSGISGLRNHMTSLNLDLQSQNIYHHGREGSRMNGSRTLTHSISDGQLQGGQSNSELFQQEPQTAPAQVPQGFNVFGMSSSSGASNSAPHLGFHLGSKGTSSLSQQTPRFNPIMVTLAPNIQTGRNTPTSLHIHGVPPPVLNSPQGNSIYIRPYITTPGGTTRQTQQHSGWVSQFNPMNPQQVYQPSQPGPWTTCPASNPLSHTSSQQPNQQGHQTSHVYMPISSPTTSQPPTIHSSGSSQSSAHSQYNIQNISTGPRKNQIEIKLEPPQRNNSSKLRSSGPRTSSTSSSVNSQTLNRNQPTVYIAASPPNTDELMSRSQPKVYISANAATGDEQVMRNQPTLFISTNSGASAASRNMSGQVSMGPAFIHHHPPKSRAIGNNSATSPRVVVTQPNTKYTFKITVSPNKPPAVSPGVVSPTFELTNLLNHPDHYVETENIQHLTDPTLAHVDRISETRKLSMGSDDAAYTQALLVHQKARMERLQRELEIQKKKLDKLKSEVNEMENNLTRRRLKRSNSISQIPSLEEMQQLRSCNRQLQIDIDCLTKEIDLFQARGPHFNPSAIHNFYDNIGFVGPVPPKPKDQRSIIKTPKTQDTEDDEGAQWNCTACTFLNHPALIRCEQCEMPRHF
Consider B2, for which the binding result in test [6] is “binds”.

B3: TAB1 (transfected) (protein, UniProt Q15750 1-504)
chain: MAAQRRSLLQSEQQPSWTDDLPLCHLSGVGSASNRSYSADGKGTESHPPEDSWLKFRSENNCFLYGVFNGYDGNRVTNFVAQRLSAELLLGQLNAEHAEADVRRVLLQAFDVVERSFLESIDDALAEKASLQSQLPEGVPQHQLPPQYQKILERLKTLEREISGGAMAVVAVLLNNKLYVANVGTNRALLCKSTVDGLQVTQLNVDHTTENEDELFRLSQLGLDAGKIKQVGIICGQESTRRIGDYKVKYGYTDIDLLSAAKSKPIIAEPEIHGAQPLDGVTGFLVLMSEGLYKALEAAHGPGQANQEIAAMIDTEFAKQTSLDAVAQAVVDRVKRIHSDTFASGGERARFCPRHEDMTLLVRNFGYPLGEMSQPTPSPAPAAGGRVYPVSVPYSSAQSTSKTSVTLSLVMPSQGQMVNGAHSASTLDEATPTLTNQSPTLTLQSTNTHTQSSSSSSDGGLFRSRPAHSLPPGEDGRVEPYVDFAEFYRLWSVDHGEQSVVTAP
In the case of B3, the binding entry in test [6] is “binds”.

B4: transforming growth factor β-activated kinase 1 (TAK1), endogenous (enzyme, UniProt Q62073 1-579)
chain: MSTASAASSSSSSSASEMIEAPSQVLNFEEIDYKEIEVEEVVGRGAFGVVCKAKWRAKDVAIKQIESESERKAFIVELRQLSRVNHPNIVKLYGACLNPVCLVMEYAEGGSLYNVLHGAEPLPYYTAAHAMSWCLQCSQGVAYLHSMQPKALIHRDLKPPNLLLVAGGTVLKICDFGTACDIQTHMTNNKGSAAWMAPEVFEGSNYSEKCDVFSWGIILWEVITRRKPFDEIGGPAFRIMWAVHNGTRPPLIKNLPKPIESLMTRCWSKDPSQRPSMEEIVKIMTHLMRYFPGADEPLQYPCQYSDEGQSNSATSTGSFMDIASTNTSNKSDTNMEQVPATNDTIKRLESKLLKNQAKQQSESGRLSLGASRGSSVESLPPTSEGKRMSADMSEIEARIVATAGNGQPRRRSIQDLTVTGTEPGQVSSRSSSPSVRMITTSGPTSEKPARSHPWTPDDSTDTNGSDNSIPMAYLTLDHQLQPLAPCPNSKESMAVFEQHCKMAQEYMKVQTEIALLLQRKQELVAELDQDEKDQQNTSRLVQEHKKLLDENKSLSTYYQQCKKQLEVIRSQQQKRQGTS
Regarding B4, the binding result in test [8] was “binds”.

B5: tumour necrosis factor (TNF) receptor-associated factor 6 (TRAF6), endogenous (protein, UniProt P70196 1-530)
chain: T2 sequence
Take B5: in test [8], the binding result is “binds”.

B6: Flag-TRAF6 (protein, UniProt P70196 1-530)
chain: T2 sequence
As for B6, the binding result in test [7], in test [4], in test [1], in test [5] and in test [2] was “binds” in each case.
